Source: patent US8163929B2, “Dihydropyridone amides as P2X7 modulators” (Roche Palo Alto LLC, priority 2008, dated 2012)
The match of structure and compound is tentative.

Amino acid sequences for entries named in this document (tags omitted).
UniProt Q99572, whole entry: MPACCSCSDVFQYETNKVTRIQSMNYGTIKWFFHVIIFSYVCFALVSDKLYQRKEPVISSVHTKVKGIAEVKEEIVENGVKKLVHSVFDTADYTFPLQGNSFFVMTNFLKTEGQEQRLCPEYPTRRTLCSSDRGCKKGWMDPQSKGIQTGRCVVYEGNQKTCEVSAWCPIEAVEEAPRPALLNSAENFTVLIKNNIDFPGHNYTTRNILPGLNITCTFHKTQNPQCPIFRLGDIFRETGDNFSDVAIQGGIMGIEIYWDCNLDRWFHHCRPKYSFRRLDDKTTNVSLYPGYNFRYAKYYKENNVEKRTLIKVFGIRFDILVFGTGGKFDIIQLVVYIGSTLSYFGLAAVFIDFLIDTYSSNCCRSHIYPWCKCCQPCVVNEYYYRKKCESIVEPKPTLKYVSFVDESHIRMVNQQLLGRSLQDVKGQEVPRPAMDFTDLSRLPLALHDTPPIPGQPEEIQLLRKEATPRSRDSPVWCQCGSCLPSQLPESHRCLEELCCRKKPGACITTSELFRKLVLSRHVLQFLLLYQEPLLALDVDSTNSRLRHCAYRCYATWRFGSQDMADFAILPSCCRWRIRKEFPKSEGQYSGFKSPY

Biological target: P2X7 (UniProt Q99572)
Assay: P2X7 activity of Table 1
Conditions: pIC50 values for P2X7

## O=C1C[C@@H](c2ccc(F)cc2)C(C(=O)Nc2cc(-c3cc[nH]n3)ccc2C(F)(F)F)=CN1
  pKi: 7.173
